Laboratory results: patent publication US20170166624A1
No constants are given. Whether binding was seen depends on the method and setting. Some binding calls cover weakened binding; strength is not graded here. Sequences can lack the tags named with a protein.

Sequences of proteins named here, by UniProt entry; tags and fusion partners are left off. Residues count along the entry.
UniProt P10600, residues 301-412: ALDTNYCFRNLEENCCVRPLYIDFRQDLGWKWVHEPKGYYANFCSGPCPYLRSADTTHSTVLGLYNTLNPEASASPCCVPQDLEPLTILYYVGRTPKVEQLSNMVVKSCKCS

Target: TGF-β3 (UniProt P10600)
Test: SPR competition, receptor with 0.8 nM TGF-β3 over immobilized 1D11

B1: RII-RIII (REU) fusion (protein)
chain: AAANGAVKFPQLCKFCDVRFSTCDNQKSCMSNCSITSICEKPQEVCVAVWRKNDENITLETVCHDPKLPYHDFILEDAASPKCIMKEKKKPGETFFMCSCSSDECNDNIIFSEEYNTSNPDGLGPVESSPGHGLDTAAACELSPINASHPVQALMESFTVLSGCASRGTTGLPREVHVLNLRSTDQGPGQRQREVTLHLNPIASVHTHHKPIVFLLNSPQPLVWHLKTERLAAGVPRLFLVSEGSVVQFPSGNFSLTAETEERNFPQENEHLLRWAQKEYGAVTSFTELKIARNIYIKVGEDQVFPPTCNIGKNFLSLNYLAEYLQPKAAEGCVLPSQPHEKEVHIIELITPSSNPYSAFQVDIIVDIRPAQEDPEVVKNLVLILKCKKSVNWVIKSFDVKGNLKVIAPNSIGFGKESERSMTMTKLVRDDIPSTQENLMKWALDNGYRPVTSYTMAPVANRFHLRLENNEEMRDEEVHTIPPELRILLDPDHPPALDNPLFPGEGSPNGGLPFPFPDIPRRGWKEGEDRIPRPKQPIVPSVQLLPDHREPEEVQGGVDIALSVKCDHEKMVVAVDKDSFQTNGYSGMELTLLDPSCKAKMNGTHFVLESPLNGCGTRHRRSTPDGVVYYNSIVVQAPSPGDSAGWPDGYEDLEAGDNGFPGDGDEGETAPLSRAGVVVFNCSLRQLRNPSGFQGQLDGNATFNMELYNTDLFLVPSPGVFSVAENEHVYVEVSVTKADQDLGFAIQTCFLSPYSNPDRMSDYTIIENICPKDDSVKFYSSKRVHFPIPHAEVDKKRFSFLFKSVFNTSLLFLHCELTLCSRKKGSLKLPRCVTPDDACTSLDATMIWTMMQNKKTFTKPLAVVLQVD
- binding: binds
